# Results: PubChem BioAssay AID540303 (National Center for Advancing Translational Sciences (NCATS), 2011)
# Hit rate of the full screen: of about 330,000 compounds, about 1,000 (0.3%) were called active. This list was built around the results that the source calls inconclusive (neither active nor inactive); the mix of calls is not that of the screen. Calls come from the whole dose curve; as a rule, active = well fitted inhibition curve with a large enough effect; inconclusive = small, poorly fitted or top-dose-only effect; inactive = no such curve, though single readings can be large or run the other way; tested in mouse RAW 264.7 cells. A potency beside an inconclusive call is a rough fit, not a confirmed value.
# Test: qHTS for Inhibitors of Cell Surface uPA Generation; note: nearly all actives have a fitted effect of over 55% in size
# Conditions: cell surface uPA generation assay; series mostly up to 38.3 µM; activity change, negative = inhibition: at the top concentration
# Procedure, shortened: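 Validation set in qHTS format. RAW 264.7 cells were pre-plated overnight and then exposed to compounds (up to 38.3 uM final) for 24 h at 37 C in 5% CO2, followed by a luminescent ATP-Lite measurement.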
# % is set by controls: 0 for no effect and ±100 for the full control effect; potency is the fitted concentration of half-maximal effect.
SMILES,Potency,"activity change, negative = inhibition"
CS/C(=C\[N+](=O)[O-])Nc1ccc(OC(F)(F)F)cc1,"inconclusive: 7.94 µM [inhibitor, partial curve]",–
C=Cc1ncc(OC)c2c1[nH]c1ccccc12,"inconclusive: 1.12 µM [inhibitor, full curve, poor fit]",–
CC[C@@H]1CC=C[C@H]2[C@H]1C(=O)N(Cc1ccccc1)[C@H]2c1ccc(OC)c(Cl)c1,–,inactive: -9.71%
CCn1c(/C=C/N(C(C)=O)c2ccccc2)[n+](CC)c2ccc(Cl)cc21,"inconclusive: 14.1 µM [inhibitor, partial curve, poor fit]",–
O=C(CN1C(=O)/C(=C/c2ccc(C(F)(F)F)cc2)Sc2ccccc21)NCCCN1CCOCC1,"inconclusive: 12.6 µM [inhibitor, single point]",–
CNC(=S)N/N=C/C1=CCC2CC1C2(C)C (centres undefined),"inconclusive: 8.91 µM [inhibitor, partial curve, poor fit]",–
COc1ccccc1OCC(=O)OC/C(O)=C(\C#N)c1nc2ccccc2[nH]1,"inconclusive: 12.6 µM [inhibitor, single point]",–
COc1ccc(NS(=O)(=O)c2ccc(-c3cnc(C4CC4)o3)cc2)cc1OC,"inconclusive: 1 µM [inhibitor, partial curve, poor fit]",–
CCNC(=O)NC(=O)C(C)OC(=O)CNS(=O)(=O)c1c(Cl)cc(Br)cc1Cl (centres undefined),"inconclusive: 3.55 µM [inhibitor, single point]",–
Fc1cccc(Cl)c1CSc1nnc(CNc2ccccc2)o1,–,inactive: -9.52%
CCCc1cc(=O)oc2c3c(c4c(c12)OC(C)(C)C=C4)OC(C)C(C)C3O (centres undefined),active: 1.41 µM,–
NC(=NCCc1ccc(Cl)cc1)NS(=O)(=O)c1ccc(F)cc1,–,inactive: 0.294%
Cc1ccc(-c2cn3cc([N+](=O)[O-])ccc3n2)cc1,–,inactive: -15%
CCOC(=O)c1c(-c2ccccc2)c2cc(OC)ccc2n1CCCN(C)C,"inconclusive: 22.4 µM [inhibitor, partial curve, poor fit]",–
Cc1cc(N/N=C/c2ccc(O)cc2)c2cccc(C)c2n1,"inconclusive: 10 µM [inhibitor, partial curve, poor fit]",–
COc1ccc(C(=O)NCC(c2cccs2)N2CCc3ccccc32)c(OC)c1 (centres undefined),"inconclusive: 3.55 µM [inhibitor, partial curve, poor fit]",–
N#C/C(=C\c1ccc(O)c(O)c1)C(=O)NCCCc1ccccc1,active: 3.55 µM,–
CCOC(=O)N1CCc2c(sc3c2c(=O)n(-c2ccc(CC)cc2)c(=O)n3CC(=O)NCC2CCCO2)C1 (centres undefined),"inconclusive: 2.82 µM [inhibitor, full curve, poor fit]",–
c1ccc([C@H]2CN3C(=N2)Sc2ccccc23)cc1,"inconclusive: 11.2 µM [inhibitor, partial curve]",–
CC1CCCN(S(=O)(=O)c2ccc3[nH]c4c(c3c2)CCCC4)C1 (centres undefined),–,inactive: 6.79%

# Three structures from above, arranged by molecular weight, low to high.
SMILES,Potency,"activity change, negative = inhibition"
Cc1ccc(-c2cn3cc([N+](=O)[O-])ccc3n2)cc1,–,inactive: -15%
Fc1cccc(Cl)c1CSc1nnc(CNc2ccccc2)o1,–,inactive: -9.52%
CCn1c(/C=C/N(C(C)=O)c2ccccc2)[n+](CC)c2ccc(Cl)cc21,"inconclusive: 14.1 µM [inhibitor, partial curve, poor fit]",–

# Going on with the list:

SMILES,Potency,"activity change, negative = inhibition"
CCCC(=O)N1CC(=O)Nc2ccc(C)cc2C1c1ccc(F)cc1 (centres undefined),–,inactive: 1.14%
COc1ccc(CCN(C)C(=O)c2cccc(S(=O)(=O)N3CCN(c4ccc(F)cc4)CC3)c2)cc1OC,"inconclusive: 7.08 µM [inhibitor, partial curve]",–
COc1cccc(CNC(=O)Cn2ccc3cc(S(=O)(=O)N4CCCCCC4)ccc32)c1OC,"inconclusive: 2.24 µM [inhibitor, partial curve]",–
Cc1sc2nc(SCc3ccc(C(=O)O)cc3)n(Cc3ccco3)c(=O)c2c1C,–,inactive: 2.71%
CC(=O)c1sc(NC(=O)C2CCN(C(=O)c3ccc(F)cc3)CC2)nc1-c1ccccc1,–,inactive: 11%
CCN1C(=O)CCN(C2CCCC2)c2nc(Nc3ccc(C(=O)NC4CCN(C)CC4)cc3OC)ncc21,"inconclusive: 7.94 µM [inhibitor, partial curve, poor fit]",–
CCCN1CCN(C(=O)C2CCN(S(=O)(=O)c3c(C)noc3/C=C/c3ccc(C)cc3)CC2)CC1,"inconclusive: 12.6 µM [inhibitor, single point]",–
CC(C)C[C@H]1CN=C(Nc2ccccc2)N1CC1CCC(C)CC1 (some centres undefined),"inconclusive: 8.91 µM [inhibitor, single point]",–
COc1ccc2sc(-c3ccccc3OC)c(-c3ccc(OCCN(C)C)cc3)c2c1,"inconclusive: 10 µM [inhibitor, partial curve, poor fit]",–
C[C@H](CO)N1C[C@H](C)[C@@H](CN(C)Cc2ccc(-c3ccccc3)cc2)Oc2c(NS(=O)(=O)c3ccccc3)cccc2C1=O,"inconclusive: 12.6 µM [inhibitor, single point]",–
O=C(NCC1CCN(C(=O)c2c(F)c(F)c(F)c(F)c2F)CC1)c1c(F)c(F)c(F)c(F)c1F,"inconclusive: 3.16 µM [inhibitor, partial curve]",–
COc1ccccc1NCC(=O)N/N=C/c1c(O)ccc2ccccc12,"inconclusive: 10 µM [inhibitor, partial curve, poor fit]",–
O=C(COc1ccc(F)cc1Cl)Nc1cccc(S(=O)(=O)N2CCCCCC2)c1,"inconclusive: 12.6 µM [inhibitor, single point]",–
CCN(CC)S(=O)(=O)c1ccc(N2CCOCC2)c(NC(=O)CSCc2c(C)noc2C)c1,"inconclusive: 0.0178 µM [inhibitor, full curve, poor fit]",–
O=c1cc(-c2ccccc2)[nH]c2cc(F)ccc12,"inconclusive: 0.0282 µM [inhibitor, full curve, poor fit]",–
Cc1ccc(Sc2ccc(NC(=O)CCl)cc2)c(C)c1,"inconclusive: 11.2 µM [inhibitor, partial curve, poor fit]",–
CCOC(=O)c1c(-c2ccc(C)cc2)csc1/N=C(\C)C1=C(O)c2ccccc2C1=O,"inconclusive: 1.58 µM [inhibitor, full curve, poor fit]",–
CCN(CC)c1ccc(/C=N/NC(=O)C2CC2)cc1,"inconclusive: 11.2 µM [inhibitor, single point]",–
CCCc1cc(C(=O)Nc2cnn(Cc3ccc(F)cc3)c2)no1,"inconclusive: 5.62 µM [inhibitor, single point]",–
